From patent publication US20220340924A1
These are yes or no findings as the source states them, for the method shown. Some results given as binding are weak or reduced against the parent protein; the word gives no strength.

Chains of the proteins cited; added tags and fusions are not shown. Lines headed by an entry give the natural chain unless they say otherwise; changes in a name come on top. A line that says so, or that is headed by a name, gives the form on record, which may keep a tag or linker.
UniProt Q39026: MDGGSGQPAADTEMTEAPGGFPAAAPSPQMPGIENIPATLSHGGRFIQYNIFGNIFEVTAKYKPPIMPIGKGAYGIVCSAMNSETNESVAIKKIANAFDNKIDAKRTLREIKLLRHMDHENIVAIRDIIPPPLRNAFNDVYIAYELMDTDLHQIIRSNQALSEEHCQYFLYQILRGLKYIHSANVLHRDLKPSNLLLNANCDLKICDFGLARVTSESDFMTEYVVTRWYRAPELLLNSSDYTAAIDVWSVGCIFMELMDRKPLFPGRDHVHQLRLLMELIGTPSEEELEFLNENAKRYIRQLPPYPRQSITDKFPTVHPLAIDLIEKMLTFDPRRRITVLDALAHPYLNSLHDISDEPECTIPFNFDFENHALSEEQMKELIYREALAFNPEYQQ
CAMPK6 BiFC construct (CAMPK6 fused to a split fluorescent protein fragment) (Q39026, form named): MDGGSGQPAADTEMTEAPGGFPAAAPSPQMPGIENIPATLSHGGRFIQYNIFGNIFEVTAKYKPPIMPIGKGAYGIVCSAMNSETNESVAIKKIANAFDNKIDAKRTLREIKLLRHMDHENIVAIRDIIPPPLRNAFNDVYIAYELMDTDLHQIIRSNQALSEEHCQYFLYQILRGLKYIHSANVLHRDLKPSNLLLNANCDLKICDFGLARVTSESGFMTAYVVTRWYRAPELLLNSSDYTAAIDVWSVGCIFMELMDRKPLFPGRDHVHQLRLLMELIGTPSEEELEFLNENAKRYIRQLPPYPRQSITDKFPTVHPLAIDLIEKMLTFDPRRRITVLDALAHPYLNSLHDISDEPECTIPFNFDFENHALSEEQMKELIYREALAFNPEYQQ
UniProt Q9LXV2: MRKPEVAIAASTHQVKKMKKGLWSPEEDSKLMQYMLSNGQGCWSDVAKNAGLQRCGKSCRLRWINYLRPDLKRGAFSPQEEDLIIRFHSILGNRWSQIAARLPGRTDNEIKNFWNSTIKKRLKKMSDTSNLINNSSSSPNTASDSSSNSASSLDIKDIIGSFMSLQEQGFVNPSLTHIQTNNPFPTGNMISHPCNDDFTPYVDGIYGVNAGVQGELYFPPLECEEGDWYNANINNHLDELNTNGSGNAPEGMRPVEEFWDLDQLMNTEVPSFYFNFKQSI

Columns and labels:
[1] = molecular target: CAMPK6 BiFC construct (CAMPK6 fused to a split fluorescent protein fragment) (UniProt Q39026); experiment: BiFC in Arabidopsis mesophyll protoplasts with MG-132
[2] = molecular target: CAMPK6 BiFC construct (CAMPK6 fused to a split fluorescent protein fragment) (UniProt Q39026); experiment: BiFC in Arabidopsis mesophyll protoplasts

- binding [1]: binds
- binding [2]: binds
Substance: MYB46 BiFC construct (MYB46 fused to a split fluorescent protein fragment) (from UniProt Q9LXV2 1-280)
